The supplement of paper PMC9135407
Values joined by “and” are separate entries in the source; they are usually repeats but may differ in a detail not shown here. Equal entries are not always repeated. Structures can show the parent of a compound that is named as a salt. ± gives the standard deviation of the averaged measurements. The list shows a part of the results. Plates or batches differ in their baseline, so values are only roughly comparable.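 Primary human stellate myofibroblasts activated in culture; inactivation shown by regained lipid droplets. Readout: fraction of Hoechst-counted cells exceeding a per-plate Bodipy threshold, duplicate wells, each plate with DMSO negative and nortriptyline positive controls. Hits: control-normalized score beyond the plate's top-tenth-percentile nortriptyline wells, or among its three best wells. Final well concentrations unstated.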

System: primary human hepatic stellate cells (donor 1)
Assay: percent Bodipy-positive cells; higher = more lipid droplet accumulation
Conditions: 48 h
[1] = library stock concentration: 10 mM
[2] = library stock concentration: 3.33 mM
[3] = library stock concentration: 1 mM
[4] = library stock concentration: 400 uM
[5] = library stock concentration: 2 mM

SMILES: CCCCC/C=C\C\C=C/C=C/C=C/CC(=O)CCCC(=O)O [5-Ketoeicosatetraenoic acid]
- percent Bodipy-positive cells (library stock concentration: 100 uM): 9.07 ± 4.7%

SMILES: C=CC[N@@+]12CC[C@@]34c5ccccc5N5/C=C6/[C@H]7C[C@H]8[C@@]9(CC[N@@+]8(CC=C)C/C7=C/CO)c7ccccc7N(/C=C(/[C@@H](C[C@@H]31)/C(=C\CO)C2)[C@H]54)[C@@H]69 [Alcuronium chloride]
- percent Bodipy-positive cells: 8.45 ± 0.56%

SMILES: COc1cc(CC(=O)O)ccc1O [4-Hydroxy-3-methoxyphenylacetic acid]
- percent Bodipy-positive cells [1]: 42.9 ± 8.6%

SMILES: COc1c(OC)c2occc2c2oc(=O)ccc12 [Pimpinellin]
- percent Bodipy-positive cells [1]: 27.8 ± 7.5%

SMILES: Cc1cc(CC(C)CC(C)(C)C)n(O)c(=O)c1 (stereo unspecified)
- percent Bodipy-positive cells [1]: 75.6 ± 11%

SMILES: Cn1c(=O)c2c(ncn2CC(O)CO)n(C)c1=O (stereo unspecified) [Diprophylline]
- percent Bodipy-positive cells: 23.9 ± 1.5%

SMILES: Cn1c(=O)c2c(ncn2CC(O)CO)n(C)c1=O (stereo unspecified) [Dyphylline]
- percent Bodipy-positive cells [2]: 7.8 ± 1.7%
- percent Bodipy-positive cells (library stock concentration: 7.9 mM): 3.72 ± 0.22%
- percent Bodipy-positive cells [1]: 12.1% and 12.5%

SMILES: CCCc1nc(C(C)(C)O)c(C(=O)OCc2oc(=O)oc2C)n1Cc1ccc(-c2ccccc2-c2nnn[nH]2)cc1
- percent Bodipy-positive cells [1]: 9.71 ± 0.17%

SMILES: CCCc1nc(C(C)(C)O)c(C(=O)OCc2oc(=O)oc2C)n1Cc1ccc(-c2ccccc2-c2nnn[nH]2)cc1 [Olmesartan Medoxomil]
- percent Bodipy-positive cells [2]: 9.83 ± 2.4%
- percent Bodipy-positive cells [1]: 13.7 ± 4.1%

SMILES: CCCc1nc(C(C)(C)O)c(C(=O)OCc2oc(=O)oc2C)n1Cc1ccc(-c2ccccc2-c2nnn[nH]2)cc1 [Olmesartan medoxomil]
- percent Bodipy-positive cells (library stock concentration: 3.6 mM): 7.08 ± 2.5%
- percent Bodipy-positive cells [1]: 56.9 ± 7.3%

SMILES: NC(=O)c1cccnc1 [Nicotinamide (Vitamin B3)]
- percent Bodipy-positive cells [2]: 7.66 ± 5.5%
- percent Bodipy-positive cells [1]: 12.7 ± 3.7%

SMILES: NC(=O)c1cccnc1 [Niacinamide]
- percent Bodipy-positive cells (library stock concentration: 16.4 mM): 22.9 ± 7.9%

SMILES: NC(=O)c1cccnc1
- percent Bodipy-positive cells [1]: 7.72 ± 1.3%

SMILES: Nc1nccs1 [Aminothiazole]
- percent Bodipy-positive cells [2]: 12.6 ± 5.8%
- percent Bodipy-positive cells [1]: 20.2% and 29.8%

SMILES: O=C(O)C=CC(=O)O.OCCOCCN1CCN(C2=Nc3ccccc3Sc3ccccc32)CC1.OCCOCCN1CCN(C2=Nc3ccccc3Sc3ccccc32)CC1 [Quetiapine Fumarate]
- percent Bodipy-positive cells [1]: 72.9 ± 2.6%

SMILES: O=C(O)CCc1nc2ccccc2[nH]1
- percent Bodipy-positive cells [1]: 17.9 ± 2%

SMILES: C[C@@H]1CC2C3C[C@H](F)C4=CC(=O)C=C[C@]4(C)[C@@]3(F)[C@@H](O)C[C@]2(C)[C@@]1(O)C(=O)COC(=O)C(C)(C)C (stereo partly specified) [Flumethazone pivalate]
- percent Bodipy-positive cells (library stock concentration: 4 mM): 1.42 ± 0.86%
- percent Bodipy-positive cells [1]: 5.24 ± 0.52%

SMILES: CC(=C(CCO)SSCC1CCCO1)N(C=O)Cc1cnc(C)nc1N (stereo in doubt) [Fursultiamine Hydrochloride]
- percent Bodipy-positive cells: 8.43 ± 1.9%

SMILES: CCC(C)(CN(C)C)OC(=O)c1ccccc1 (stereo unspecified) [Amyleine hydrochloride]
- percent Bodipy-positive cells: 22.4 ± 2%

SMILES: CC(C)C[C@@H](/C=C/S(C)(=O)=O)NC(=O)[C@H](CC(C)C)NC(=O)[C@H](CC(C)C)NC(=O)OCc1ccccc1
- percent Bodipy-positive cells (library stock concentration: 9.1 mM): 93.1 ± 5.1%

SMILES: C=C(NC(=O)C(=C)NC(=O)c1csc(C2=N[C@@H]3c4csc(n4)[C@H]4NC(=O)c5csc(n5)[C@H]([C@](C)(O)[C@@H](C)O)NC(=O)[C@H]5CSC(=N5)/C(=C/C)NC(=O)[C@H]([C@@H](C)O)NC(=O)c5csc(n5)[C@]3(CC2)NC(=O)[C@H](C)NC(=O)C(=C)NC(=O)[C@H](C)NC(=O)[C@H]([C@@H](C)CC)N[C@@H]2C=Cc3c([C@H](C)O)cc(nc3[C@H]2O)C(=O)O[C@@H]4C)n1)C(N)=O [Thiostrepton]
- percent Bodipy-positive cells: 97.1 ± 2.2%

SMILES: O=C(/C=C/c1ccc(/C=C/C(=O)Nc2ccc(C3=NCCN3)cc2)cc1)Nc1ccc(C2=NCCN2)cc1 [GW 4869 (hydrochloride hydrate)]
- percent Bodipy-positive cells [3]: 31 ± 7.1%

SMILES: CC(C)N(CCCNC(=O)Nc1ccc(C(C)(C)C)cc1)C[C@H]1O[C@@H](n2cc(Br)c3c(N)ncnc32)[C@H](O)[C@@H]1O
- percent Bodipy-positive cells [1]: 99.42 ± 0.17%

SMILES: CC(C)(O)c1cc2nc(-c3cnc(N)nc3)nc(N3CCOCC3)c2s1
- percent Bodipy-positive cells [4]: 12.7 ± 1.8%
- percent Bodipy-positive cells [5]: 9.319 ± 0.038%
- percent Bodipy-positive cells [1]: 12.1 ± 0.72%

SMILES: CNC1(C)C2CCC(C2)C1(C)C (stereo unspecified) [Mecamylamine HCl]
- percent Bodipy-positive cells (library stock concentration: 12 mM): 10.5 ± 7.3%

SMILES: CNC1(C)C2CCC(C2)C1(C)C (stereo unspecified) [Mecamylamine hydrochloride]
- percent Bodipy-positive cells: 14.8 ± 3.4%
- percent Bodipy-positive cells [1]: 64.8 ± 3.5%

SMILES: NC(=O)C1(N2CCCCC2)CCN(CCCC(=O)c2ccc(F)cc2)CC1
- percent Bodipy-positive cells [1]: 24.4 ± 4.9%

SMILES: O=C(NCc1ccc(Oc2ccccc2)cc1)c1nc(-c2cc(Br)c(O)c(Br)c2)no1
- percent Bodipy-positive cells [2]: 22.5 ± 1.2%
- percent Bodipy-positive cells [1]: 36.6 ± 9.2%

SMILES: CCCCCCCCCCCCCCCC[N+](C)(C)C [Cetrimonium Bromide (CTAB)]
- percent Bodipy-positive cells [2]: 28.2 ± 8.4%
- percent Bodipy-positive cells [1]: 99.44 ± 0.79%

SMILES: CCCCCCCCCCCCCCCC[N+](C)(C)C [Cetrimonium bromide]
- percent Bodipy-positive cells [1]: 99.78 ± 0.31%

SMILES: Cc1c(Cn2c(C)nc3c(C(=O)O)cc(N4CCOCC4)cc32)cccc1C(F)(F)F
- percent Bodipy-positive cells (library stock concentration: 80 uM): 4.94 ± 0.15%
- percent Bodipy-positive cells [4]: 5.88 ± 0.38%
- percent Bodipy-positive cells [5]: 5.31 ± 1.6%
- percent Bodipy-positive cells [2]: 25.4 ± 4.5%
- percent Bodipy-positive cells [1]: 15.1% and 3.51%

SMILES: C[C@@]1(O)[C@H](O)[C@@H](CO)O[C@H]1n1cnc2c(NC3CCCC3)nc(Cl)nc21
- percent Bodipy-positive cells [1]: 5.42 ± 1%

SMILES: CC(C)c1onc(-c2c(Cl)cccc2Cl)c1COc1ccc(/C=C/c2cccc(C(=O)O)c2)c(Cl)c1
- percent Bodipy-positive cells [2]: 5.96 ± 0.48%
- percent Bodipy-positive cells [1]: 6.38% and 5.7%

SMILES: Nc1nc(Nc2ccc(S(N)(=O)=O)cc2)nn1C(=O)c1c(F)cccc1F
- percent Bodipy-positive cells [4]: 18.3 ± 2.6%
- percent Bodipy-positive cells [5]: 23.3 ± 4.1%
- percent Bodipy-positive cells [2]: 44.5 ± 4.5%
- percent Bodipy-positive cells [1]: 61% and 54.5%

SMILES: CCCCCC=CCC=CCC=CCCCCCCC(=O)OC [Dihomo-.gamma.-Linolenic Acid methyl ester]
- percent Bodipy-positive cells [3]: 16.2 ± 5%

SMILES: CC1CCN=C(N)C1 (stereo unspecified) [2-Imino-4-methylpiperidine (acetate)]
- percent Bodipy-positive cells [3]: 7.54 ± 0.43%
